Reference: patent US20200123268A1 (UNIVERSIT DEGLI STUDI MAGNA GRAECIA CATANZARO, published 2020)
These are yes or no findings as the source states them, for the method shown. Some results given as binding are weak or reduced against the parent protein; the word gives no strength.

Molecular target: T1, human CD43, endogenous, on primary cells and cell lines that carry the UMG1 epitope (human) (UniProt P16150)
T1 sequence (chain, native glycosylation of the cell concerned): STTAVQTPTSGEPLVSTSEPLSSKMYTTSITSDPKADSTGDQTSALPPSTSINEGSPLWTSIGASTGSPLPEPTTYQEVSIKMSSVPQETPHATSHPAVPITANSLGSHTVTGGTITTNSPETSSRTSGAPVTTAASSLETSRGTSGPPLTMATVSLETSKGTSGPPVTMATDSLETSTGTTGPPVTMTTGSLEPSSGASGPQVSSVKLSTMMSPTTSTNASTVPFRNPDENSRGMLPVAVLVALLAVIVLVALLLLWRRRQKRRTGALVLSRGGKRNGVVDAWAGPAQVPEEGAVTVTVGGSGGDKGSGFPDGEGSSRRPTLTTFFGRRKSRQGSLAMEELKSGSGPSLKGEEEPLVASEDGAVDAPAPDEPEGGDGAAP
Experiment: flow cytometry, antibody at 1 ug/ml, FITC mouse anti-human IgG secondary; histogram grid, cell line not labelled (HPB-ALL or H9)

Binder	binding
CHL1 (antibody, V domains shown) VH: DVQLVESGGGLVQPGGSRKLSCVASGFTFSSFGMHWVRQAPEKGLEWVAYISSGSGNFYYVDTVKGRFTISRDNPKNTLFLQMTSLRSEDTAMYYCARSTYYHGSRGAMDYWGQGTSVTVSS VL: EIVLTQSPATLSLSPGERATLSCSASSSVSSMYWYQQKPGLAPRLLIYDTSKMASGIPDRFSGSGSGTDFTLTISRLEPEDFAVYYCQQWSSYPPITFGQGTRLEIK	binds
H1CL (antibody, V domains shown) VH: EVQLVESGGGLVQPGGSLRLSCAASGFTFSSFGMHWVRQAPGKGLEWVSYISSGSGNFYYVDTVKGRFTISRDNAKNSLYLQMNSLRAEDTAVYYCARSTYYHGSRGAMDYWGQGTLVTVSS VL: QIALTQSPAIMSASPGEKVTMTCSASSSVSSMYWYQLKPGSSPRLLIYDTSKMASGVPIRFSGSGSGTSFSLTVSRVEAEDAATYYCQQWSSYPPITFGAGSKLELK	binds
